Results are given in words; binding and its absence hold for the method and conditions named. In cells and extracts the contact can be indirect. A result given as binding can be weak or reduced; the word gives no strength. Tags and fused reporters may be left off the sequences shown.
T1: FLAG-tagged human RNase L (human) (UniProt Q05823)
T1 sequence: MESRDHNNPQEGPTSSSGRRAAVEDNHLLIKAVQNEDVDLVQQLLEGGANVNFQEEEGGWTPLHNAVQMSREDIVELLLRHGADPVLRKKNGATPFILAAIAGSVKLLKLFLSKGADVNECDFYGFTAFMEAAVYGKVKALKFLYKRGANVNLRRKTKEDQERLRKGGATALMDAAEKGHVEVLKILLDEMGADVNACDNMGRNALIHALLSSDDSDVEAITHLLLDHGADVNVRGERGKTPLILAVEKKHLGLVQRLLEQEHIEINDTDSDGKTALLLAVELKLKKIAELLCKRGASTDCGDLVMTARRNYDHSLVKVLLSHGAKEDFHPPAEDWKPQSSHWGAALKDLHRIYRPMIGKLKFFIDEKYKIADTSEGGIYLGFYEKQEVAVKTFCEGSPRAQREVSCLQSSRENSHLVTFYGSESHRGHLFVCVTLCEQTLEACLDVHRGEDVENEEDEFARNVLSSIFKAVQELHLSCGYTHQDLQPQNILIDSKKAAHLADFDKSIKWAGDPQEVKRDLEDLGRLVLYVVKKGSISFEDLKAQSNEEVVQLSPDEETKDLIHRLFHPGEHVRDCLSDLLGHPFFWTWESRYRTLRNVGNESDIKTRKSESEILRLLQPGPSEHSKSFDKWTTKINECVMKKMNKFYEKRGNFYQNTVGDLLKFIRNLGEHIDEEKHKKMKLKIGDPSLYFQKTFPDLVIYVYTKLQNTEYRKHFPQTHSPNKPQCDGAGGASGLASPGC


Columns and labels:
[1] = biological target: T1, FLAG-tagged human RNase L (human); assay: co-IP
[2] = biological target: Halo-tagged SA11 NSP1 (rotavirus A, simian strain SA11); assay: pull-down

Molecule | binding [1] | binding [2]
Halo-tagged SA11 NSP1 (rotavirus A, simian strain SA11) | binds | 
FLAG-tagged human RNase L (enzyme, UniProt Q05823 1-741) MESRDHNNPQEGPTSSSGRRAAVEDNHLLIKAVQNEDVDLVQQLLEGGANVNFQEEEGGWTPLHNAVQMSREDIVELLLRHGADPVLRKKNGATPFILAAIAGSVKLLKLFLSKGADVNECDFYGFTAFMEAAVYGKVKALKFLYKRGANVNLRRKTKEDQERLRKGGATALMDAAEKGHVEVLKILLDEMGADVNACDNMGRNALIHALLSSDDSDVEAITHLLLDHGADVNVRGERGKTPLILAVEKKHLGLVQRLLEQEHIEINDTDSDGKTALLLAVELKLKKIAELLCKRGASTDCGDLVMTARRNYDHSLVKVLLSHGAKEDFHPPAEDWKPQSSHWGAALKDLHRIYRPMIGKLKFFIDEKYKIADTSEGGIYLGFYEKQEVAVKTFCEGSPRAQREVSCLQSSRENSHLVTFYGSESHRGHLFVCVTLCEQTLEACLDVHRGEDVENEEDEFARNVLSSIFKAVQELHLSCGYTHQDLQPQNILIDSKKAAHLADFDKSIKWAGDPQEVKRDLEDLGRLVLYVVKKGSISFEDLKAQSNEEVVQLSPDEETKDLIHRLFHPGEHVRDCLSDLLGHPFFWTWESRYRTLRNVGNESDIKTRKSESEILRLLQPGPSEHSKSFDKWTTKINECVMKKMNKFYEKRGNFYQNTVGDLLKFIRNLGEHIDEEKHKKMKLKIGDPSLYFQKTFPDLVIYVYTKLQNTEYRKHFPQTHSPNKPQCDGAGGASGLASPGC |  | binds

Source: publication doi:10.1101/2022.08.24.505191
